Source: patent US20070179110A1, “EXPRESSION OF IMMUNOGENIC SUBSTANCES” (Mayo Foundation for Medical Education and Research, priority 1997, published 2007)
At least one structure is not confirmed: it was looked up by name or label, or the drawing left a doubt.

Experiments:
chTCR gene expression = assay: Regulation of surface chTCR expression by tetracyclines in JLAV12S (pLAV12-transfected Jurkat) cells, FACS; assay type: cell-based, human
Description: The Jurkat T cell line (clone E6-l) was maintained in RPMI 1640 supplemented with 10% foetal calf serum (FCS), 2 mM L-glutamine, 100 U/ml penicillin, 100 μg/ml streptomycin and 25 mM HEPES buffer (all from GIBCO-BRL, Gaithersburg, Md.), referred to as complete medium (CM). To generate stable cell lines Jurkat cells were transfected with linearized plasmid DNA (10 μg) by electroporation, at […] and 960 μF, as described previously (13). Transfectants were selected in CM supplemented with 0.4 mg/ml of hygromycin B (Calbiochem, San Diego, Calif.). Stable cell lines were established after 3-4 weeks and analyzed by FACS for expression of the chTCR. To select a population of chTCR ζ expressing cells, stable Jurkat cells transfected with the linearized pLAV12 or pCEP4.aNIP.TCR ζ derived plasmid fragments were FACS sorted (see below). […]
Expression of cell surface proteins was performed by standard direct immunofluorescence as described (14) using saturating amounts of FITC-conjugated antibodies. […] The samples were analysed with a FACScan® (Becton Dickinson, Mountain View, Calif.). A minimum of 20,000 cells was analysed for each sample. […]
To study the time-course of inactivation of gene expression, JLAV12S cells were analysed at different times after addition of the antibiotics at 1 μg/ml (FIG. 2B).
A dose-response curve of gene repression was determined using different concentrations of Tet or Dox. […]

JLAV12S cells = assay: IL-2 production of JLAV12S cells stimulated with iNIP10-BSA; assay type: cell-based, human; details: full TRP repression, 48 hours preincubation

CN(C)[C@@H]1C(O)=C(C(N)=O)C(=O)[C@@]2(O)C(O)=C3C(=O)c4c(O)cccc4[C@@](C)(O)[C@H]3C[C@@H]12 [tetracycline]
chTCR expression within 8 hours of exposure (chTCR gene expression): slight reduction
response (IL-2 production) to stimulation with iNIP10-BSA conjugates (JLAV12S cells): completely unresponsive

C[C@H]1c2cccc(O)c2C(=O)C2=C(O)[C@]3(O)C(=O)C(C(N)=O)=C(O)[C@@H](N(C)C)[C@@H]3[C@@H](O)[C@@H]21 [doxycycline]
response (IL-2 production) to stimulation with iNIP10-BSA conjugates (JLAV12S cells): completely abrogate
response (IL-2 production) to stimulation with iNIP10-BSA conjugates (JLAV12S cells; listed as Dox): completely unresponsive
